Assay results: patent publication US9107879B1, “Methods of increasing the cytotoxicity of chemotherapeutic agents with multisubstrate inhibitors of histone, protein-lys, polyamine acetylation, and polyamine metabolism” (Vanderbilt University, priority 2010, dated 2015)
For at least one compound, name, drawing or mass did not settle the structure. Some of these results come from one statement about several compounds together.

Amino acid sequences for entries named in this document (tags omitted).
UniProt P21673, whole entry, species assumed: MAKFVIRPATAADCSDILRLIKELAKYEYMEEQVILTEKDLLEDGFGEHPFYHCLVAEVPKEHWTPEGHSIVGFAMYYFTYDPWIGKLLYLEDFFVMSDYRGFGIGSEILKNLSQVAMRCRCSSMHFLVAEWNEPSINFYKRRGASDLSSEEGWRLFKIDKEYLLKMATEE

How the values were obtained:
H358 lung cancer cells = experiment: 96-well MTS cell viability assay; format: cell-based
Description: Control cells were left untreated. […] Control cells were left untreated.
Cells were given fresh inhibitor on the first, second, and third days of treatment and viability was measured on the 4th day (i.e. 3 days post start of treatment).
(A) Structure of compound 2a. […] Averages of duplicate samples with standard deviations are shown.
(A) Structure of Spd-3a. (B) Western analysis of histone H3K9-acetylation and total histone H3, measured in control, untreated H358 lung cancer cells “C’ or in H358 cells incubated 12 hours in the presence of 50 μM Spd-2a or Spd-3a. Each lane represents 60 μg cellular protein. (C) [3H]-thymidine incorporation (counts per minute) into DNA of H358 cells during a 6 hour pulse beginning at 42 hours post-start of treatment. Treatments were as follows (bars 1-6 left to right): (1) control: no treatment; (2) CPT alone: 5 nM 18 hours; (3) 3a alone: 50 μM; (4-6) 3a+CPT: CPT (5 nm, 18 hours)+3a at indicated dose. After 18 hours, CPT was removed and medium was replaced with fresh medium containing Spd-3a at the indicated dose. Each bar represents the average of triplicates. (D) 3-day 96-well viability assay of H358 cells grown in the presence of increasing amounts of Spd-2a or Spd-3a, with or without CPT (5 nM 18 hours). […] Each data point represents the average of three wells.
Cells were plated in 96-well plates at 2000 cells per well and treated with the indicated doses of spd-3a. Cell viability was measured by the MTS assay 3 days later.
DLD-1 cells or H358 cells were plated in 96-well plates at 2000 cells per well and treated with the indicated doses of (A) spm-3 or (B) spm-2. (C) Cell viability was measured by the MTS assay 3 days later. Similar experiment using GT41 fibroblasts with spm2 or spm 3. Each assay point represents an average of duplicates.
Control cells received neither 1a nor camptothecin.
After overnight attachment, triplicate wells were treated with increasing concentrations of inhibitor 1a or 1b. Control wells were left untreated. One day later, and again 2 days later, the medium in the wells was removed and replaced with fresh medium containing 1a or 1b.

[1] = tested on: normal GT41F human skin fibroblast cells; experiment: [3H]-thymidine incorporation DNA synthesis assay; format: cell-based
From the text: Cells were either labeled immediately before treatment (starting DNA synthesis rate), or subjected to the indicated treatments and then pulsed on successive days until day 4. DNA synthesis is represented as the percent of starting DNA synthesis rate.
The present inventors used a 96-well viability assays as described in Saadatmandi et al (Cancer Gene Therapy (2002) 9:930-9) to examine the effect of the spermidine-CoA inhibitor disclosed previously on DNA synthesis in normal GT41F human skin fibroblast cells, as well as its combined effect with camptothecin. GT41F cells were plated in 96-well plates at 3000 cells per well. […] Following the 6-hour labeling, cells were harvested and incorporation of [^3H]-thymidine was determined by scintillation counting.

H358 cells = experiment: cell cycle analysis of propidium iodide-stained cells; format: cell-based; conditions: 50 μM 1a; maximal at 12 hour, normal by 24 hours
[2] = biological target: Spermine spermidine acetyltransferase (SSAT) (Homo sapiens, UniProt P21673); conditions: cited from earlier work

CC(C)(COP(=O)(O)OP(=O)(O)OC[C@H]1O[C@@H](n2cnc3c(N)ncnc32)[C@H](O)[C@@H]1OP(=O)(O)O)[C@@H](O)C(=O)NCCC(=O)NCCSCC(=O)NCCCNCCCCN [1a, spermidine[N1]-CoA]
2-day cumulative cell viability relative to untreated, single agent (H358 lung cancer cells; 1a increasing concentrations, camptothecin 5 nM 18 hour): little effect
suppression of 3 day cell viability (H358 lung cancer cells; repeated exposures, fresh inhibitor daily, inhibitor alone): 60-70%
3-day cell viability, single agent (H358 lung cancer cells; single agent): little effect
effect on incorporation of [3H]-thymidine, combination ([1]; 50 μM 1a + 5 nM camptothecin (18 hours)): virtually no effect
effect on incorporation of [3H]-thymidine, single agent ([1]; 1a 50 μM, camptothecin 5 nM 18 hours): virtually no effect
cell cycle distribution (H358 cells): depletion of G2-phase cells
SSAT inhibition [2]: potent inhibitor
